{"source": "PubChem BioAssay AID2685", "about": "(National Center for Advancing Translational Sciences (NCATS), 2010)", "assay": "qHTS Assay for Lipid Storage Modulators in Drosophila S3 Cells;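 on cell number change: cells counted by Cell Tracker Red CMTPX staining in the red channel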", "conditions": "BODIPY lipid droplet fluorescence, 18-24 h; for cell number change: measured here: cell count max response, cells fed with added oleic acid", "summary_of_the_method": "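Laser-scanning cytometry quantifies lipid droplet accumulation (500–530 nm total intensity; droplet/cell object ratio) in oleic acid-fed (400 uM added) Drosophila S3 cells treated with a concentration series. 20 uM Triacsin C defined 100% inhibition.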", "key": {"[1]": {"conditions": "measured here: cell number channel AC50, cells fed with added oleic acid"}, "[2]": {"conditions": "measured here: lipid fluorescence (Fed channel) AC50, cells fed with added oleic acid"}}, "note": "This is one part of the list. These are further read-outs of the screen, such as a control signal, another cell line or another target. No call is given for them. The list favours compounds with an active or inconclusive main result. Words in brackets tell the shape of the fitted curve; partial curves, single points and poor fits give uncertain potencies.", "data": [{"smiles": "CSCC[C@H](NC(=O)[C@@H]1Cc2ccccc2CN1)C(=O)NC[C@H]1CC[C@H](C(=O)O)CC1", "values": [{"measurement": "cell number change", "result": 2.42, "unit": "%"}]}, {"smiles": "CC(C)(C)N1CC(c2nc3ccccc3n2CCOc2ccccc2)CC1=O", "note": "(configuration not stated)", "values": [{"measurement": "cell number change", "result": 54.5, "unit": "%"}, {"measurement": "AC50", "setting": "[1]", "result": "6.51 µM [rising, single point]"}, {"measurement": "AC50", "setting": "[2]", "result": "0.231 µM [rising, full curve, poor fit]"}]}, {"smiles": "Cc1ccc2c(C)c(C(=O)N(Cc3ccc(N(C)C)cc3)C3CCS(=O)(=O)C3)oc2c1", "note": "(configuration not stated)", "values": [{"measurement": "cell number change", "result": -1.73, "unit": "%"}, {"measurement": "AC50", "setting": "[2]", "result": "18.4 µM [falling, single point]"}]}, {"smiles": "COc1ccc(N(CC(=O)N2CCC(C(N)=O)CC2)S(=O)(=O)c2ccccc2)cc1", "values": [{"measurement": "cell number change", "result": 16.7, "unit": "%"}, {"measurement": "AC50", "setting": "[2]", "result": "25.9 µM [falling, single point]"}]}, {"smiles": "CC(C)(C)C(=O)c1cn(CC(=O)O)c2ccccc12", "values": [{"measurement": "cell number change", "result": -12, "unit": "%"}]}, {"smiles": "Nc1nc(SCC(=O)NCc2ccccc2)n[nH]1", "values": [{"measurement": "cell number change", "result": -0.585, "unit": "%"}, {"measurement": "AC50", "setting": "[2]", "result": "8.2 µM [rising, single point]"}]}, {"smiles": "COC(=O)c1ccccc1NC(=O)COc1ccccc1[N+](=O)[O-]", "values": [{"measurement": "cell number change", "result": -12.6, "unit": "%"}, {"measurement": "AC50", "setting": "[2]", "result": "0.082 µM [falling, full curve, poor fit]"}]}, {"smiles": "CCNc1nc(NCC)nc(OCCOC(=O)Nc2ccccc2)n1", "values": [{"measurement": "cell number change", "result": -9.16, "unit": "%"}, {"measurement": "AC50", "setting": "[2]", "result": "1.16 µM [rising, full curve]"}]}, {"smiles": "Cc1ccc(-c2nc3ncccn3c2NC2CCCCC2)o1", "values": [{"measurement": "cell number change", "result": 75.6, "unit": "%"}, {"measurement": "AC50", "setting": "[1]", "result": "10.3 µM [rising, partial curve]"}, {"measurement": "AC50", "setting": "[2]", "result": "20.6 µM [rising, partial curve]"}]}, {"smiles": "Cc1ccc2nc(-c3ccccc3)c(CC(=O)O)c(C(=O)O)c2c1", "values": [{"measurement": "cell number change", "result": 13.9, "unit": "%"}, {"measurement": "AC50", "setting": "[2]", "result": "0.00461 µM [rising, full curve]"}]}, {"smiles": "COc1ccc(C(=O)NC2CCN(CC(=O)N3CCCCC3)CC2)cc1", "values": [{"measurement": "cell number change", "result": 7.21, "unit": "%"}, {"measurement": "AC50", "setting": "[2]", "result": "0.651 µM [rising, partial curve, poor fit]"}]}, {"smiles": "COc1ccc(-c2cc(=O)oc3c(C)c(OCC(=O)NCC4CCC(C(=O)O)CC4)ccc23)cc1", "note": "(configuration not stated)", "values": [{"measurement": "cell number change", "result": 18.8, "unit": "%"}]}, {"smiles": "Cc1ccc(S(=O)(=O)N2C(=O)CCC2C(=O)N2CCN(C)CC2)cc1", "note": "(configuration not stated)", "values": [{"measurement": "cell number change", "result": 6.82, "unit": "%"}, {"measurement": "AC50", "setting": "[2]", "result": "6.51 µM [falling, single point]"}]}, {"smiles": "COc1cccc(CNc2ccc(N3CCCCC3)cc2)c1OC", "values": [{"measurement": "cell number change", "result": -45.9, "unit": "%"}, {"measurement": "AC50", "setting": "[1]", "result": "18.4 µM [falling, partial curve]"}, {"measurement": "AC50", "setting": "[2]", "result": "20.6 µM [falling, partial curve]"}]}, {"smiles": "CCn1c(SCC(=O)Nc2ccccc2C(=O)OC)nc2c1c(=O)n(C)c(=O)n2C", "values": [{"measurement": "cell number change", "result": 1.39, "unit": "%"}, {"measurement": "AC50", "setting": "[2]", "result": "29.1 µM [falling, single point]"}]}, {"smiles": "O=C(c1ccco1)N1CCN(c2ccccc2F)CC1", "values": [{"measurement": "cell number change", "result": 30.5, "unit": "%"}]}, {"smiles": "CCc1nnc(NC(=O)CSc2nnc(-c3ccco3)n2CC)s1", "values": [{"measurement": "cell number change", "result": -7.02, "unit": "%"}, {"measurement": "AC50", "setting": "[2]", "result": "29.1 µM [rising, single point]"}]}, {"smiles": "CS(=O)(=O)c1ccccc1-c1nnc(-c2ccc(Cl)cc2)o1", "values": [{"measurement": "cell number change", "result": -18.3, "unit": "%"}, {"measurement": "AC50", "setting": "[1]", "result": "0.146 µM [falling, full curve, poor fit]"}, {"measurement": "AC50", "setting": "[2]", "result": "4.61 µM [falling, full curve, poor fit]"}]}, {"smiles": "OCCCCC#Cc1c(-c2ccsc2)sc2ccccc12", "values": [{"measurement": "cell number change", "result": 4.85, "unit": "%"}, {"measurement": "AC50", "setting": "[2]", "result": "29.1 µM [rising, single point]"}]}, {"smiles": "CCC1Oc2ccc(C)cc2N(CC(=O)NCC2CCCO2)C1=O", "note": "(configuration not stated)", "values": [{"measurement": "cell number change", "result": -19, "unit": "%"}]}, {"smiles": "Cc1ccc2c(c1)N(CC(=O)OCC(=O)NCc1ccccc1)C(=O)CO2", "values": [{"measurement": "cell number change", "result": -25.7, "unit": "%"}, {"measurement": "AC50", "setting": "[2]", "result": "5.17 µM [falling, single point]"}]}, {"smiles": "Cc1nnc(SCCC(=O)Nc2nc(-c3ccccc3)ns2)s1", "values": [{"measurement": "cell number change", "result": -28.9, "unit": "%"}, {"measurement": "AC50", "setting": "[2]", "result": "4.11 µM [rising, full curve, poor fit]"}]}, {"smiles": "COCCSc1nnc(NC(=O)CCS(=O)(=O)Cc2ccccc2)s1", "values": [{"measurement": "cell number change", "result": 22.9, "unit": "%"}, {"measurement": "AC50", "setting": "[2]", "result": "29.1 µM [rising, single point]"}]}, {"smiles": "O=S(=O)(NCc1ccccc1)NCc1cccc(C(F)(F)F)c1", "values": [{"measurement": "cell number change", "result": 8.68, "unit": "%"}]}, {"smiles": "NS(=O)(=O)c1ccc(CCN2C(=O)CCC2=O)cc1", "values": [{"measurement": "cell number change", "result": 20.5, "unit": "%"}]}, {"smiles": "O=C1C2=C(CCCC2)C(=O)N1CNc1ccccc1", "values": [{"measurement": "cell number change", "result": 3.3, "unit": "%"}, {"measurement": "AC50", "setting": "[2]", "result": "6.51 µM [rising, single point]"}]}, {"smiles": "COc1c(S(=O)(=O)n2nc(C)cc2C)ccc(Cl)c1Cl", "values": [{"measurement": "cell number change", "result": 72.7, "unit": "%"}, {"measurement": "AC50", "setting": "[1]", "result": "11.6 µM [rising, partial curve, poor fit]"}, {"measurement": "AC50", "setting": "[2]", "result": "0.0326 µM [rising, full curve, poor fit]"}]}, {"smiles": "CCOC(=O)Cc1csc(NC(=O)c2cc(=O)c3ccccc3o2)n1", "values": [{"measurement": "cell number change", "result": -21.8, "unit": "%"}, {"measurement": "AC50", "setting": "[2]", "result": "0.92 µM [falling, full curve, poor fit]"}]}, {"smiles": "COc1cc(NC(=O)CSc2nc3ccccc3cc2C)c(C(=O)O)cc1OC", "values": [{"measurement": "cell number change", "result": 0.626, "unit": "%"}, {"measurement": "AC50", "setting": "[1]", "result": "0.731 µM [falling, single point]"}, {"measurement": "AC50", "setting": "[2]", "result": "1.16 µM [falling, single point]"}]}, {"smiles": "COc1cc(C)ccc1OCCCOc1ccccc1Br", "values": [{"measurement": "cell number change", "result": -39.7, "unit": "%"}, {"measurement": "AC50", "setting": "[1]", "result": "16.4 µM [falling, partial curve, poor fit]"}, {"measurement": "AC50", "setting": "[2]", "result": "16.4 µM [falling, partial curve]"}]}, {"smiles": "O=C(NNC1=NCCCCC1)c1ccccc1", "values": [{"measurement": "cell number change", "result": -9.34, "unit": "%"}]}, {"smiles": "COc1ccc(Oc2cc(Cl)nc(N)n2)cc1", "values": [{"measurement": "cell number change", "result": -8.48, "unit": "%"}]}, {"smiles": "O=Cc1ccc(-c2ccc([N+](=O)[O-])cc2Cl)o1", "values": [{"measurement": "cell number change", "result": -15.4, "unit": "%"}]}, {"smiles": "COCCNC(=O)c1ccc(C2SCC(=O)N2CCc2ccccc2)cc1", "note": "(configuration not stated)", "values": [{"measurement": "cell number change", "result": 11.6, "unit": "%"}, {"measurement": "AC50", "setting": "[2]", "result": "6.51 µM [falling, single point]"}]}, {"smiles": "CCC(C)Nc1nc(SC(C(C)=O)C(C)=O)nc(N(C)C)n1", "note": "(configuration not stated)", "values": [{"measurement": "cell number change", "result": -21, "unit": "%"}, {"measurement": "AC50", "setting": "[2]", "result": "8.2 µM [rising, partial curve]"}]}, {"smiles": "O=c1oc2ccccc2c(N2CCOCC2)c1[N+](=O)[O-]", "values": [{"measurement": "AC50", "setting": "[1]", "result": "4.61 µM [falling, partial curve]"}]}, {"smiles": "CCN(CC)c1ccc(/C=N/NS(=O)(=O)c2ccc(CNC(C)=O)cc2)cc1", "values": [{"measurement": "cell number change", "result": -10.2, "unit": "%"}, {"measurement": "AC50", "setting": "[2]", "result": "10.3 µM [falling, partial curve, poor fit]"}]}, {"smiles": "S=C(NCc1ccco1)Nc1cc(-c2ccccc2)[nH]n1", "values": [{"measurement": "cell number change", "result": -17.8, "unit": "%"}, {"measurement": "AC50", "setting": "[1]", "result": "0.116 µM [falling, full curve, poor fit]"}, {"measurement": "AC50", "setting": "[2]", "result": "0.146 µM [falling, full curve, poor fit]"}]}, {"smiles": "Cc1ccc(CN2CCN(/N=C\\c3cccc([N+](=O)[O-])c3)CC2)cc1", "values": [{"measurement": "cell number change", "result": 18.1, "unit": "%"}, {"measurement": "AC50", "setting": "[2]", "result": "2.31 µM [rising, single point]"}]}, {"smiles": "O=C(NCCN1CCNC1=O)C1CCC(=O)N(Cc2ccccc2F)C1", "note": "(configuration not stated)", "values": [{"measurement": "cell number change", "result": 22.3, "unit": "%"}, {"measurement": "AC50", "setting": "[2]", "result": "20.6 µM [rising, partial curve]"}]}]}
